# Assay results reported in publication PMC5069779.
# Chains of the proteins cited; added tags and fusions are not shown.
# UniProt Q13153: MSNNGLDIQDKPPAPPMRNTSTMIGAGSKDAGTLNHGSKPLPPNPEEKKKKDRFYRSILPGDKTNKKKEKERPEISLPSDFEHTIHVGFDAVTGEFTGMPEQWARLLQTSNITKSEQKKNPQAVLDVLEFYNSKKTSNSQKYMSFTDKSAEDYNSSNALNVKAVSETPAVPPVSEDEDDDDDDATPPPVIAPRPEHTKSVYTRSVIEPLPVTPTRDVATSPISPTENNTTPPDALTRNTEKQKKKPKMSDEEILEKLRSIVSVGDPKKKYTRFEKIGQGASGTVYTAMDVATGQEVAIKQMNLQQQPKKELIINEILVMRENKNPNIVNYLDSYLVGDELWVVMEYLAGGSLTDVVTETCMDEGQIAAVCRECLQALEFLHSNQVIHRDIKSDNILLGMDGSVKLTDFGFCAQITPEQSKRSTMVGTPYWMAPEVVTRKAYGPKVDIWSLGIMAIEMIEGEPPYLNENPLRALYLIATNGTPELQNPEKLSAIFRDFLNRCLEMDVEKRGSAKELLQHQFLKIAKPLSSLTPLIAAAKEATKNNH
# What was measured:
# [1] = biological target: HA-tagged MIIP (155-388), N-terminal deletion (human) (UniProt Q5JXC2); assay: co-IP; anti-HA immunoprecipitation from HEC1B cells transfected for 24 h with HA-tagged wild-type or truncated MIIP; blot for PAK1 and HA
# [2] = biological target: GST-PAK1 PBD (p21-binding domain of PAK1) coupled to agarose beads (UniProt Q13153); assay: pull-down; Rac activity assay kit: GST-PAK1 PBD beads incubated with lysates of HEC1A cells (MIIP siRNA or scramble control siRNA) or HEC1B cells (Ad-MIIP or Ad-Ev); western blot; only the target purified
molecule,measurement,setting,value
Endogenous PAK1 (p21-activating kinase 1) (from UniProt Q13153 1-545),binding,[1],binds
"Migration and invasion inhibitory protein (MIIP) expressed from adenovirus (Ad-MIIP) in HEC1B cells (protein, UniProt Q5JXC2 1-388) MVEAEELAQLRLLNLELLRQLWVGQDAVRRSVARAASESSLESSSSYNSETPSTPETSSTSLSTSCPRGRSSVWGPPDACRGDLRDVARSGVASLPPAKCQHQESLGRPRPHSAPSLGTSSLRDPEPSGRLGDPGPQEAQTPRSILAQQSKLSKPRVTFSEESAVPKRSWRLRPYLGYDWIAGSLDTSSSITSQPEAFFSKLQEFRETNKEECICSHPEPQLPGLRESSGSGVEEDHECVYCYRVNRRLFPVPVDPGTPCRLCRTPRDQQGPGTLAQPAHVRVSIPLSILEPPHRYHIHRRKSFDASDTLALPRHCLLGWDIFPPKSEKSSAPRNLDLWSSVSAEAQHQKLSGTSSPFHPASPMQMLPPTPTWSVPQVPRPHVPRQKP",binding,[2],binds

# These are yes or no findings as the source states them, for the method shown. Binding seen in cells or lysates may run through a third protein. Binding calls can cover weak binding; strength is not graded here. For some assays here: Sequences can lack the tags named with a protein.
